Measured values: the supplement of paper PMC8728848
Some of the results follow.

Experiments:
Assay in all cases: glycan array binding signal (z-score within array); higher = stronger binding
Details in all cases: glycan notation: IUPAC condensed, linker removed
[1] = target: Neu5Ac(a2-6)Gal(b1-4)GlcNAc(b1-3)Gal(b1-4)GlcNAc(b1-2)Man(a1-3)[Neu5Ac(a2-6)Gal(b1-4)GlcNAc(b1-3)Gal(b1-4)GlcNAc(b1-2)Man(a1-6)]GalNAc
Summary of the method: (§1)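 Glycan array data came from 3228 arrays in the Consortium for Functional Glycomics database, and only arrays with an available protein sequence were kept. Glycan names were put into IUPAC-condensed notation, and columns mapping to the same glycan were averaged. The binding signal is a within-array Z-score, averaged across arrays of one protein sequence run at different concentrations or buffers and across linkers. A negative Z-score can be read as non-binding.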

[2] = target: Neu5Ac(a2-6)Gal(b1-4)GlcNAc(b1-3)Gal(b1-4)GlcNAc(b1-3)Gal(b1-4)GlcNAc
Summary of the method: as §1

[3] = target: Neu5Ac(a2-6)Gal(b1-4)GlcNAc(b1-3)Gal(b1-4)GlcNAc(b1-3)Gal(b1-4)GlcNAc(b1-2)Man(a1-3)[Neu5Ac(a2-6)Gal(b1-4)GlcNAc(b1-3)Gal(b1-4)GlcNAc(b1-3)Gal(b1-4)GlcNAc(b1-2)Man(a1-6)]GalNAc
Summary of the method: as §1

[4] = target: Neu5Ac(a2-6)Gal(b1-4)GlcNAc(b1-3)Gal(b1-4)GlcNAc(b1-3)GalNAc
Summary of the method: as §1

[5] = target: Neu5Ac(a2-6)Gal(b1-4)GlcNAc(b1-3)Gal(b1-4)GlcNAc(b1-3)[Neu5Ac(a2-6)Gal(b1-4)GlcNAc(b1-3)Gal(b1-4)GlcNAc(b1-6)]GalNAc
Summary of the method: as §1

[6] = target: Neu5Ac(a2-6)Gal(b1-4)GlcNAc(b1-3)Gal(b1-4)GlcNAc(b1-6)[Gal(b1-3)]GalNAc
Summary of the method: as §1

[7] = target: Neu5Ac(a2-6)Gal(b1-4)GlcNAc(b1-3)Gal(b1-4)[Fuc(a1-3)]GlcNAc(b1-3)Gal(b1-4)[Fuc(a1-3)]GlcNAc
Summary of the method: as §1

[8] = target: Neu5Ac(a2-6)Gal(b1-4)GlcNAc(b1-3)GalNAc
Summary of the method: as §1

[9] = target: Neu5Ac(a2-6)Gal(b1-4)GlcNAc(b1-3)[Neu5Ac(a2-6)Gal(b1-4)GlcNAc(b1-6)]GalNAc
Summary of the method: as §1

[10] = target: Neu5Ac(a2-6)Gal(b1-4)GlcNAc(b1-6)GalNAc
Summary of the method: as §1

[11] = target: Neu5Ac(a2-6)Gal(b1-4)GlcNAc(b1-6)[Gal(b1-3)GlcNAc(b1-3)]Gal(b1-4)Glc
Summary of the method: as §1

[12] = target: Neu5Ac(a2-6)Gal(b1-4)GlcNAc(b1-6)[Gal(b1-3)]GalNAc
Summary of the method: as §1

[13] = target: Neu5Ac(a2-6)Gal(b1-4)GlcNAc6S
Summary of the method: as §1

Neu5Ac(a2-6)GalNAc = target: Neu5Ac(a2-6)GalNAc
Summary of the method: as §1

[14] = target: Neu5Ac(a2-6)GalNAc(b1-4)GlcNAc
Summary of the method: as §1

[15] = target: Neu5Ac(a2-6)GalNAc(b1-4)GlcNAc6S
Summary of the method: as §1

[16] = target: Neu5Ac(a2-6)GlcNAc(b1-4)GlcNAc
Summary of the method: as §1

[17] = target: Neu5Ac(a2-6)GlcNAc(b1-4)GlcNAc(b1-4)GlcNAc
Summary of the method: as §1

Neu5Ac(a2-8)Neu5Ac = target: Neu5Ac(a2-8)Neu5Ac
Summary of the method: as §1

[18] = target: Neu5Ac(a2-8)Neu5Ac(a2-3)Gal(b1-3)GalNAc(b1-4)[Neu5Ac(a2-3)]Gal(b1-4)Glc
Summary of the method: as §1

[19] = target: Neu5Ac(a2-8)Neu5Ac(a2-3)Gal(b1-3)GalNAc(b1-4)[Neu5Ac(a2-8)Neu5Ac(a2-3)]Gal(b1-4)Glc
Summary of the method: as §1

[20] = target: Neu5Ac(a2-8)Neu5Ac(a2-3)Gal(b1-4)Glc
Summary of the method: as §1

[21] = target: Neu5Ac(a2-8)Neu5Ac(a2-3)Gal(b1-4)GlcNAc
Summary of the method: as §1

[22] = target: Neu5Ac(a2-8)Neu5Ac(a2-3)[Gal(b1-3)GalNAc(b1-4)]Gal(b1-4)Glc
Summary of the method: as §1

[23] = target: Neu5Ac(a2-8)Neu5Ac(a2-3)[GalNAc(b1-4)]Gal(b1-4)Glc
Summary of the method: as §1

[24] = target: Neu5Ac(a2-8)Neu5Ac(a2-8)Neu5Ac
Summary of the method: as §1

[25] = target: Neu5Ac(a2-8)Neu5Ac(a2-8)Neu5Ac(a2-3)Gal(b1-4)Glc
Summary of the method: as §1

[26] = target: Neu5Ac(a2-8)Neu5Ac(a2-8)Neu5Ac(a2-3)[Gal(b1-3)GalNAc(b1-4)]Gal(b1-4)Glc
Summary of the method: as §1

[27] = target: Neu5Ac(a2-8)Neu5Ac(a2-8)Neu5Ac(a2-3)[GalNAc(b1-4)]Gal(b1-4)Glc
Summary of the method: as §1

[28] = target: Neu5Ac(a2-8)Neu5Ac(a2-8)Neu5Ac(a2-8)Neu5Ac(a2-3)[GalNAc(b1-4)]Gal(b1-4)Glc
Summary of the method: as §1

[29] = target: Neu5Ac(a2-8)Neu5Gc(a2-3)Gal(b1-4)GlcNAc
Summary of the method: as §1

[30] = target: Neu5Ac(b2-6)Gal(b1-4)GlcNAc
Summary of the method: as §1

Neu5Ac(b2-6)GalNAc = target: Neu5Ac(b2-6)GalNAc
Summary of the method: as §1

[31] = target: Neu5Ac9Ac(a2-3)Gal(b1-3)GlcNAc
Summary of the method: as §1

[32] = target: Neu5Ac9Ac(a2-3)Gal(b1-4)GlcNAc
Summary of the method: as §1

[33] = target: Neu5Ac9Ac(a2-6)Gal(b1-4)GlcNAc
Summary of the method: as §1

[34] = target: Neu5Gc(a2-3)Gal(b1-3)GlcNAc
Summary of the method: as §1

[35] = target: Neu5Gc(a2-3)Gal(b1-3)[Fuc(a1-4)]GlcNAc
Summary of the method: as §1

Neu5Gc(a2-3)Gal(b1-4)Glc = target: Neu5Gc(a2-3)Gal(b1-4)Glc
Summary of the method: as §1

[36] = target: Neu5Gc(a2-3)Gal(b1-4)GlcNAc
Summary of the method: as §1

[37] = target: Neu5Gc(a2-3)Gal(b1-4)GlcNAc(b1-3)Gal(b1-4)GlcNAc(b1-2)Man(a1-3)[Neu5Gc(a2-3)Gal(b1-4)GlcNAc(b1-3)Gal(b1-4)GlcNAc(b1-2)Man(a1-6)]Man(b1-4)GlcNAc(b1-4)GlcNAc
Summary of the method: as §1

[38] = target: Neu5Gc(a2-3)Gal(b1-4)[Fuc(a1-3)]GlcNAc
Summary of the method: as §1

[39] = target: Neu5Gc(a2-6)Gal(b1-4)GlcNAc
Summary of the method: as §1

Neu5Gc(a2-6)GalNAc = target: Neu5Gc(a2-6)GalNAc
Summary of the method: as §1

[40] = target: Neu5Gc(a2-8)Neu5Ac(a2-3)Gal(b1-4)GlcNAc
Summary of the method: as §1

B1: Drgal1 (Danio rerio) (protein)
chain: MAGVLIQNMSFKVGQTLTITGVPKPDSTNFAINIGHSPEDIALHMNPRFDAHGDQCTIVCNSFQSGSWCEEHRDDNFPFIQDKEFQIKITFTNEEFLVTLPDGSEIHFPNRQGSEKYKYMYFEGEVRIQGVEIK
[1]
  glycan array binding signal (z-score): 0.461
[2]
  glycan array binding signal (z-score): 0.629
[3]
  glycan array binding signal (z-score): 0.48
[4]
  glycan array binding signal (z-score): -0.157
[5]
  glycan array binding signal (z-score): 0.01
[6]
  glycan array binding signal (z-score): -0.18
[7]
  glycan array binding signal (z-score): -0.061
[8]
  glycan array binding signal (z-score): 0.401
[9]
  glycan array binding signal (z-score): -0.513
[10]
  glycan array binding signal (z-score): -0.312
[11]
  glycan array binding signal (z-score): -0.594
[12]
  glycan array binding signal (z-score): -0.43
[13]
  glycan array binding signal (z-score): -0.043
Neu5Ac(a2-6)GalNAc
  glycan array binding signal (z-score): -0.418
[14]
  glycan array binding signal (z-score): -0.481
[15]
  glycan array binding signal (z-score): -0.364
[16]
  glycan array binding signal (z-score): -0.61
[17]
  glycan array binding signal (z-score): -0.281
Neu5Ac(a2-8)Neu5Ac
  glycan array binding signal (z-score): -0.202
[18]
  glycan array binding signal (z-score): -0.215
[19]
  glycan array binding signal (z-score): -0.326
[20]
  glycan array binding signal (z-score): -0.282
[21]
  glycan array binding signal (z-score): -0.918
[22]
  glycan array binding signal (z-score): -0.531
[23]
  glycan array binding signal (z-score): 0.12
[24]
  glycan array binding signal (z-score): -0.42
[25]
  glycan array binding signal (z-score): -0.5
[26]
  glycan array binding signal (z-score): -0.523
[27]
  glycan array binding signal (z-score): -0.081
[28]
  glycan array binding signal (z-score): -0.304
[29]
  glycan array binding signal (z-score): -0.631
[30]
  glycan array binding signal (z-score): 0.234
Neu5Ac(b2-6)GalNAc
  glycan array binding signal (z-score): -0.504
[31]
  glycan array binding signal (z-score): -0.15
[32]
  glycan array binding signal (z-score): -0.247
[33]
  glycan array binding signal (z-score): 0.335
[34]
  glycan array binding signal (z-score): -0.439
[35]
  glycan array binding signal (z-score): -0.286
Neu5Gc(a2-3)Gal(b1-4)Glc
  glycan array binding signal (z-score): 0.145
[36]
  glycan array binding signal (z-score): -0.419
[37]
  glycan array binding signal (z-score): -0.111
[38]
  glycan array binding signal (z-score): 0.593
[39]
  glycan array binding signal (z-score): 0.309
Neu5Gc(a2-6)GalNAc
  glycan array binding signal (z-score): -0.574
[40]
  glycan array binding signal (z-score): -0.248
